Experimental findings from US20230398068A1 (priority 2020, published 2023) are described below.

The nature of the data set: Aerosol deposition in Vitrocell inserts (cell free controls). The following applies: for Mean deposition: 2.5% drug in propylene glycol, cell free inserts.

SMILES strings stand for the structures.

As for `CCN(CC)CCCC(C)Nc1ccnc2cc(Cl)ccc12` (stereo not shown) [chloroquine], the Percent deposition is recorded as 0.23% (25 puffs) and 0.21% (50 puffs). Besides, the Mean deposition is 7.24 µg (25 puffs); 7.238 ± 0.840 µg (25 puffs, listed as Chloroquine); 13.15 µg (50 puffs); 13.148 ± 1.348 µg (50 puffs, listed as Chloroquine). In addition, the amount deposited (100 puffs, cell free controls) was 12.91 µg.
